Measurements reported in patent publication US20210147531A1 (AstraZeneca / MedImmune, published 2021).
No constants are given. Whether binding was seen depends on the method and setting.

Columns and labels:
[1] = molecular target: T1, human VEGF121 (human, UniProt P15692-9 27-147); assay: condition: 2-fold serial dilution starting from 8 nM; ELISA, coated human VEGF121
T1 construct: the isoform is VEGF121
T1 sequence (looked up): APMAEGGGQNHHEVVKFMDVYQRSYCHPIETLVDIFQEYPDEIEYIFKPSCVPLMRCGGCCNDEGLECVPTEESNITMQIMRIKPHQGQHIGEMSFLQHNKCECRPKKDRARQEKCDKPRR

[2] = molecular target: T1, human VEGF121; assay: condition: about 70 nM (last point just below 100 nM); ELISA on human VEGF121 (Example 8), OD 450 nm against antibody concentration

B1: E06 full length IgG (antibody, V domains shown)
VH: EVQLLESGGGLVQPGGSLRLSCAASGFTFSWYEMYWVRQAPGKGLEWVSSISPSGGWTMYADSVKGRFTISRDNSKNTLYLQMNSLRAEDTAVYYCATPLYSSDGLSAGDIWGQGTMVTVSS
VL: DIQMTQSPATLSLSPGERATLSCRASQSVSSSYLAWYQQKPGQAPRLLIYGASSRATGIPDRFSGSGSGTDFTLTISRLEPEDFATYYCQQSYSTPSFGQGTRLEITR
notes: also called antibody E06; Wt (E06)
For B1, the binding [1] was “no binding” and the binding [2] was “no binding”.
